Assay: general procedure: peptide synthesis; TSTU (succinimidyl ester activation of side chain)
Settings: lipidation step

N^εB29-(3-[2-{2-(2-[ω-carboxy-pentadecanoyl-γ-glutamyl-(2-amino-ethoxy)]-ethoxy)-ethoxy}-ethoxy]-propionyl) desB30 human insulin
step yield: 13% | final HPLC purity (HPLC): >98% | step yield (coupling yield by RP-HPLC): 64%

Source: patent publication US8859493B2 (Novo Nordisk A/S, priority 2005, dated 2014)
